According to patent EP0390654B1, “Aminobenzenesulfonic acid derivative” (Mitsubishi Chemical Corporation, priority 1989, dated 1990):
The name of at least one read-out is uncertain.

Test system: Papillary muscle of right ventricle
Assay: Inhibition of the cardiotonic activity of isoproterenol (developed tension) in isolated papillary muscle, as index of inhibiting Ca²⁺ overload into cells
Parameters: species or system male Hartley-strain guinea-pigs
Conditions: inhibition of developed tension increased by isoproterenol
Procedure: For evaluation of the extent of inhibiting Ca²⁺ overload into cells, which is the pharmacological activity of the compound of the present invention, inhibition of the cardiotonic activity of isoproterenol by the compounds of the present invention was measured.
That is to say, since isoproterenol has been known to cause Ca²⁺ overload by excessive Ca²⁺ influx into cardiac muscle cells (Fleckenstein A., Janke J., Doring H., Leder O.; Recent advances in Studies on cardiac structure and metabolism, Myocardial Biology, Vol. 4, pp. 563 - 580 (1974)), the compound which inhibits the activity of isoproterenol can inhibit Ca²⁺ overload into cells.
Papillary muscle of right ventricle isolated from male Hartley-strain guinea-pigs (body weight: 250 to 350 g) was suspended in an organ bath filled with a nutrient solution (Krebs-Henseleit solution). The temperature of the nutrient solution was maintained at 32 °C, and a gas mixture of 95 % oxygen and 5 % carbon dioxide was aerated. The papillary muscle was applied with a resting tension of about 0.5 g, and stimulated with platinum electrodes by an electric pulse wave of a duration of 1 msec, a frequency of 1 Hz and a voltage higher by 15 % than the threshold value. The developed tension of the papillary muscle was measured through a tension transducer and recorded with a polygraph. […]

## CCCc1ccc(N2CCNCC2)c(S(=O)(=O)O)c1 [Compound No. 14, 2-(1-piperazinyl)-5-n-propylbenzenesulfonic acid]
Drug concentration 10⁻⁴ M
  Inhibition (%): 19.2%
Drug concentration 10⁻⁵ M
  Inhibition (%): 10.4%
